From doi:10.1101/2021.01.28.428001 (bioRxiv, 2021)
These are yes or no findings as the source states them, for the method shown.

The chains behind the UniProt entries cited, without tags or fusion partners. Where a name states a change or a piece, a line headed by the entry shows the natural chain unless it says otherwise. Residues count along the entry.
UniProt Q15155, residues 32-1160: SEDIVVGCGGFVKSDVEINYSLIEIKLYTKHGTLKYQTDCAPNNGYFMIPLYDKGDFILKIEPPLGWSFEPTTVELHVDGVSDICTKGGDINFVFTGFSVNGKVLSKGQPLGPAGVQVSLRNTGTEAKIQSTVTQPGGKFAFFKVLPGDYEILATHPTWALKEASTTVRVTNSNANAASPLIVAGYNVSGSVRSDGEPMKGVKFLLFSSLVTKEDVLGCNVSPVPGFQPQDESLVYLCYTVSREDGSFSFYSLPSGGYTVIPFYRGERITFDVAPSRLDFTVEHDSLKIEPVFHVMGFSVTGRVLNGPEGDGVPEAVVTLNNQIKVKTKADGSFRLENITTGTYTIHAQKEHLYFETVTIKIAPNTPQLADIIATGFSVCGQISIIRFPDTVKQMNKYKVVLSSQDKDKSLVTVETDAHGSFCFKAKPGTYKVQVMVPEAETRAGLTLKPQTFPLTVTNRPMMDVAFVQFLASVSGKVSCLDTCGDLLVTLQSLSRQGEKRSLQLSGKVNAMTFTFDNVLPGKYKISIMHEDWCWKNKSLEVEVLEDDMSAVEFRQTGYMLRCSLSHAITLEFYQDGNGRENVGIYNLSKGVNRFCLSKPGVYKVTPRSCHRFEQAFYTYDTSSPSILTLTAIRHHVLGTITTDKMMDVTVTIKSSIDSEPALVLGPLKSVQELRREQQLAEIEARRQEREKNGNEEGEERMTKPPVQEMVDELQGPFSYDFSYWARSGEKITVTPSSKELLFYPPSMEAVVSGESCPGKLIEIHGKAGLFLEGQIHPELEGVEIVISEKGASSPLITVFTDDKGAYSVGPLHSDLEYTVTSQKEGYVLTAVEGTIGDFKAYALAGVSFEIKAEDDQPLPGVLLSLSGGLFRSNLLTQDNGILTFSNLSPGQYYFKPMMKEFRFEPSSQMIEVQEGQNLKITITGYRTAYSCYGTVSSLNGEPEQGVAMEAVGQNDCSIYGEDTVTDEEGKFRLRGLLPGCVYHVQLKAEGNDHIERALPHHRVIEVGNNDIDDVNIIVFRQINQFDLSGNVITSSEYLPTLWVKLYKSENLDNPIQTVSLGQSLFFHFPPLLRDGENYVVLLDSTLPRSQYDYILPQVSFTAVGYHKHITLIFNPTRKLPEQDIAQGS

Target: NOMOΔTM-FLAG (NOMO1 residues 1-1160, lacking the transmembrane and cytosolic domains) (human) (UniProt Q15155)
Assay: SEC-MALS

“NOMOΔTM-FLAG (NOMO1 residues 1-1160, lacking the transmembrane and cytosolic domains) (from UniProt Q15155 32-1160) (domain or fragment)” was tested, and the binding was “no binding”.
